According to patent publication US9623065B2, “Kind of polygonum capitatum extract, its application and a preparation containing the polygonum capitatum extract” (Zhejiang Sanzheng Biotechnology Co., Ltd., priority 2013, dated 2017):
“Also recorded” adds a separate entry of the source. At least one structure is not confirmed: it was looked up by name or label, or the drawing left a doubt.

Key:
[1] = system: alloxan hyperglycemia model mice; assay: Blood glucose of alloxan hyperglycemia model mice, comparison of extraction methods (Test Case 4); assay type: in vivo, KM mice
[2] = system: alloxan hyperglycemia model mice; assay: Efficacy test of tablet, oral liquid, capsule, granules in alloxan hyperglycemia model mice (Test Cases 5-8); assay type: in vivo, KM mice; conditions: summary of Tables 8-11; high, medium and low dose; listed as positive group

C[C@H]1O[C@H](O[C@H]2[C@H](O)[C@@H](O)[C@@H](O[C@H]3[C@H](O)[C@@H](O)C(O)O[C@@H]3CO)O[C@@H]2CO)[C@H](O)[C@@H](O)[C@@H]1N[C@H]1C=C(CO)[C@@H](O)[C@H](O)[C@H]1O (stereo partly drawn) [Acarbose]
body weight of the mice ([1]; FIG. 1, after 18 days of treatment, positive group vs model group): higher than that of model group
hypoglycemic effect ([1]; summary of Table 7): showed a hypoglycemic effect
hypoglycemic effect [2]: has a hypoglycemic effect; also recorded: have a hypoglycemic effect
